This is one part of the list.
B1: il2ra_site2_3nfp_normal_mot_HHH_b2_05281_000000198_0001_39_56_H_._HHH_b2_08293_0001_0000100004_0000001_0_af2pred_0001_af2pred (protein)
chain: SSSSSDEEEQRVRELIEEAEHIEDPEEFREVLAEATRIATEANDPELFHLIAEVFLKFHGSSSSS
B2: il2ra_site1_3nfp_normal_mot_HHH_b1_02637_af2_000000013_0001_1_18_H_._HHH_b1_07972_af2_0001_0000300021_0000001_0_af2pred_dldesign_0_af2pred (protein)
chain: SSSSSPREEVERLIKEASELAKAGKNEEALKLLEEALKLAEKLGAKATTKFIKRCIKILKSSSSS
B3: il2ra_site1_2b5i_normal_mot_f5ff40796168375b462bec8614a1db4a_0001_1_000000138_0001_53_65_H_._HHH_b1_02204_0001_0000500049_0000001_0_af2pred_dldesign_0_af2pred (protein)
chain: SSSSDPGAVDLARELFEEARRVEDPRERLRLLRLALRAARKGKDEELVAEIEAEIAEVLESSSSS
B4: il2ra_site2_3nfp_normal_mot_HHH_b1_02962_000000041_0001_43_56_H_._HHH_b2_06621_af2_0001_0000200008_0000001_0 (protein)
chain: SSSSSLEEEVERLLEEAEKAVENGNPEEARRLLQEATELAFRANNPELFFLIAELLFKLNQSSSS
B5: il2ra_site1_3nfp_normal_mot_7f2fc9564206058543fe500fefea0e08_0001_000000219_0001_1_13_H_._3b4a64fcac932a42eec55da33af97b30_0001_1_af2_0001_0000100003_0000001_0_ … (protein)
chain: DEEAKERVEEALERGDPELALEILKELAEKRNSRAAKRLLELLERLLRVDPEAVLRIIKKALRAL
B6: il2ra_site2_2erj_normal_mot_HHH_b1_02968_000000142_0001_22_39_H_._HHH_b2_06818_0001_0000300018_0000001_0 (protein)
chain: SSSSSSDVEEQVERLLEEAERIEDLREVYRLAVEALHLAAEARDQELLRLIWEVVERVSSSSSSS
B7: il2ra_site1_2b5i_normal_mot_HHH_b1_03447_af2_000000033_0001_43_57_H_._HHH_b2_06886_af2_0001_0000500027_0000001_0_1_af2pred_dldesign_0_af2pred (protein)
chain: SSSSSEKEAELDELADEAYRLARKGDKERFKEVAEKAKALAKELGDEKTVAELEYLEKKLSSSSS
B8: il2ra_site1_3nfp_normal_mot_HHH_b1_00042_af2_000000196_0001_42_57_H_._HHH_b1_07808_af2_0001_0000500059_0000001_0 (protein)
chain: SSSSDEELRLNRRFQELWKEAKKRNDEELLKELLELLKELAEELNDRVLEWLVRQLEEALNSSSS
B9: il2ra_site2_2erj_sap_23_mot_HHH_b1_06554_000000001_0001_44_57_H_._HHH_b1_06642_0001_0000500013_0000001_0_0001 (protein)
chain: SSSSDAAEHAAEVSVELLRLFKEGNEEELERLLKEAKEFVEERNDEHALKYLEFVEEDLRSSSSS
B10: il2ra_site2_3nfp_normal_mot_HHH_b1_03851_000000147_0001_21_38_H_._HHH_b1_04525_0001_0000600036_0000001_0 (protein)
chain: SSSSDEERREARELFEELQELLEENDKHAVFEVLMELFELAARTGDEEAARLVLEIYAQLRSSSS
B11: il2ra_site2_3nfp_sap_16_mot_HHH_b2_00429_000000100_0001_21_37_H_._ae1c9ea29156517b3605075ffbb42e44_0001_0002_0000200042_0000001_1_0001 (protein)
chain: SSSSSSDEEELAELLEELLERGDEEKLRKVVREAAHLAFEKGDHELFFLAAEALYSLASSSSSSS
B12: il2ra_site2_2erj_normal_mot_HHH_b2_06080_000000063_0001_42_56_H_._HHH_b2_01714_0001_0001400013_0000001_0_af2pred_0001_af2pred (protein)
chain: SSSSDLEEVLRELEEALAEGDEELIRKLFEEVEELAKHVPDEELRSEAERLLLFAELLLRHSSSS
B13: il2ra_site2_2erj_sap_12_mot_HHH_b1_08231_000000052_0001_20_37_H_._HHH_b1_06388_af2_0001_0000300009_0000001_0_0001 (protein)
chain: SSSSDEEEEKLEKFVEELVEKFNLDERTEELLRESLKVALSAGVNPELIQRFLERSAKAQSSSSS
B14: il2ra_site2_3nfp_normal_mot_HHH_b2_08072_af2_000000052_0001_39_54_H_._HHH_b2_06188_0001_0000700030_0000001_0_af2pred_0001_1_af2pred_swapped (protein)
chain: SSSSSSSELEHRAFILALELREEGDEEAAKELLELLYRVLTENDPELERELKELLEELSSSSSSS
B15: il2ra_site2_2erj_normal_mot_HHH_b1_01239_000000175_0001_43_57_H_._HHH_b1_01477_0001_0000100001_0000001_0_1_af2pred_0001_1_af2pred_swapped (protein)
chain: SSSSSDREEVEEEVRELLEEAERIPDLREALKLLQEASQLADEIGDPELFELVLEVLQRLSSSSS
B16: il2ra_site1_1z92_sap_17_mot_8b347a0de1c9f22fb2e23e9a493f891b_0001_000000262_0001_37_51_H_._46d73865503fbedcaf0f3a45445d594c_0001_0001_0000100012_0000001_0_0001_ … (protein)
chain: SSSSNSREILLESAEEMLRLAEEKNDEEALKRLLEQLERFLKFAGDPRVEELIEELRKLLGSSSS
B17: il2ra_site2_3nfp_sap_30_mot_HHH_b1_06577_af2_000000152_0001_20_36_H_._0211eb4cb6cc506d3757c28afaeb928d_0001_0001_0000100024_0000001_0_0001_af2pred_0001_af2pred (protein)
chain: SSSSDLKEKVEKVLEEVEELERRGNPEEARKLLAELADEIYENQDFEAFAILVKFFEERDSSSSS
B18: il2ra_site2_3nfp_sap_24_mot_HHH_b1_00399_af2_000000233_0001_42_56_H_._HHH_b2_05884_0001_0000300011_0000001_0_0001_af2pred_0001_1_af2pred_swapped (protein)
chain: DSLEELAQEAVEEGDPALLDAVAVALALEEAGVPPEEIEKRVKRFLELLGVPPEEIEEILELLKK
B19: il2ra_site2_3nfp_sap_15_mot_HHH_b1_06677_000000199_0001_20_36_H_._254fc17bb08746de5dae9ef87d53b160_0001_0001_0000100001_0000001_0_0001 (protein)
chain: SSSSSDKEEAEERVEELLEEAKHVSPEEQRELLKEASQLAWKVNDFELFAKVNELIAELASSSSS

Biological target: il2ra, P01589
Experiment: yeast display titration

Apparent Kd, inactive:
B1 no binding seen
B2 no binding seen
B3 no binding seen
B4 no binding seen
B5 no binding seen
B6 no binding seen
B7 no binding seen
B8 no binding seen
B9 no binding seen
B10 no binding seen
B11 no binding seen
B12 no binding seen
B13 no binding seen
B14 no binding seen
B15 no binding seen
B16 no binding seen
B17 no binding seen
B18 no binding seen
B19 no binding seen

Not a retest: entries from further up.
Apparent Kd, inactive:
B13 no binding seen
B14 no binding seen

Reference: article PMC10163288
